# Reference: PubChem BioAssay AID1688 (National Center for Advancing Translational Sciences (NCATS), 2009)
# Out of some 220,000 compounds screened, about 2,400 (1.1%) were called active. This list was built around the results that the source calls inconclusive (neither active nor inactive); the mix of calls is not that of the screen. Calls follow the shape of the dose curve; as a rule, active = well fitted inhibition curve with a large enough effect; inconclusive = small, poorly fitted or top-dose-only effect, or effect the other way; inactive = no such curve, though single readings can be large or run the other way. A potency beside an inconclusive call is a rough fit, not a confirmed value.
# Experiment: qHTS Multiplex Assay to Identify Dual Action Probes in a Cell Model of Huntington: Aggregate Formation (GFP); also: nearly all actives have a fitted effect of over 60% in size
# Details: PC12 HttQ103-GFP aggregates, Acumen cytometry, 40 h; activity change, negative = inhibition: at 46.1 µM (top of the series) unless noted
# Text: NIH Chemical Genomics Center [NCGC]
# NIH Molecular Libraries Probe Production centers Network [MLPCN]
# Assay Submitter (PI): Wei Zheng
# Huntington's disease is a neurodegenerative disorder caused by a trinucleotide repeat expansion in Exon 1 of the Huntingtin gene. The CAG trinucleotide encodes glutamine and polyglutamine expansions cause cell death in selective areas of the brain. Huntington polyglutamine repeats have the tendency to form aggregates which are observable in later stages of the disease. The exact nature of the aggregates, whether toxic, protective, or insignificant, is unclear.
# A stable PC12 cell line containing a gene fusion of Exon 1 of the Huntingtin gene linked to GFP under the control of the inducible ecdysone promoter were used as the cell-based model of Huntington Disease for high throughput screening. Exon 1 of the Huntingtin gene contained an expansion of 103 polyglutamines (Q103) which, when expressed, caused cell death and distinct, bright GFP aggregates. The amount of cell death and the size and intensity of GFP aggregates increased over time and induction level. The cell death were quantified with a measurement of ATP content in the cells. A maximal 40-50% of cell death was observed when the Huntington gene was induced in this cell line.
# We optimized this assay in a homogeneous 1536 well format. A quantitative high throughput screen (qHTS) was conducted on the PC12 cells which were induced to express the toxic fusion construct. Small molecules which reduced aggregate formation were identified bu using a laser scanning cytometer calibrated to detect the aggregates in cell lysates.
# PC12 cells stably containing a construct with an ecdysone inducible promoter expressing GFP fused to the exon 1 of HTTQ103 (Huntington protein which containing a 103 ployglutamine expansion) were used.
# NCGC Assay Protocol Summary:
# Sequence, Parameter, Description
# 1, Reagent, 5 uL 1500 cells/well 1536 TC treated White clear bottom plate
# 2, Compound, 23 nL Tebufenozide inducer (100 nM final) to all columns
# 3, Compound, 23 nL 40 uM to 0.5 nM Libraries
# 5, Reagent, 5 ul ATPLite cell death assay reagent
# 6, Detector, Aggregate quantitation by Acumen Explorer
# Media consisted of phenol red free DMEM + 5% equine serum (Hyclone # SH30072.03 ), 5% supplemented Bovine Calf Serum (Hyclone # SH30074.03 ), 1x pen/strep, no G418
# Acumen Explorer was used to quantitate GFP aggregates using the following criteria: […] laser excitation, 500-530 nm emission, the PMT was set at a voltage of 450 volts, and objects ranging in size of […] in size having a signal of 6 STDEV above background were collected.
# Control columns: 1 = DMSO, 2= 2 uM teb dilns (1:1), 4 = 100 nM Teb inducer. Sample columns received 100 nM Teb.
# % is scaled to controls: 0 for no effect and ±100 for the full control effect; potency is read from the fitted curve at half-maximal effect.
SMILES,Potency,"activity change, negative = inhibition"
COc1ccc(/C=N/NS(=O)(=O)c2ccc(C)cc2)cc1OC(=O)c1ccccc1,"inconclusive: 2.24 µM [activator, full curve, poor fit]",
CCn1c(=O)n(CCOC)c(=O)c2c3c(sc21)CCCC3,"inconclusive: 11.2 µM [inhibitor, single point]",
Cc1ccc(-c2nn(-c3ccccc3)cc2/C=N/NC(=O)CSc2nnc(C)n2-c2ccccc2)cc1,"inconclusive: 22.4 µM [inhibitor, single point]",
COc1ccccc1-n1c(=O)oc2ccc(Cl)cc2c1=O,active: 7.08 µM,
CC(C)(C)c1ccc(-c2nc(NCc3cccnc3)c3ccccc3n2)cc1,"inconclusive: 35.5 µM [inhibitor, single point]",
COc1ccccc1N1CC(O)=C(c2nc3ccccc3s2)C1=N,"inconclusive: 6.31 µM [inhibitor, partial curve]",
Cc1ccc(NC(=O)Cn2cccc2)cc1Cl,inactive,
CCOc1ccc(S(=O)(=O)c2c(C(=O)c3ccccc3)cnc3cc4c(cc23)OCCO4)cc1,"inconclusive: 7.08 µM [activator, partial curve]",
CCCCCn1c(=S)[nH]c2ncccc2c1=O,"inconclusive: 35.5 µM [inhibitor, single point]",
Cc1ccccc1C(=O)NC(=S)Nc1sc2c(c1C#N)CCCC2,inactive,
O=C(Cc1ccccc1)N1CCN=C1SCc1ccc([N+](=O)[O-])cc1,inactive,
Cc1cc(C)nc(Oc2ccc([N+](=O)[O-])cc2)n1,"inconclusive: 3.55 µM [inhibitor, single point]",
COc1cccc(Cn2c(NCc3ccco3)nc3c2c(=O)n(C)c(=O)n3C)c1,"inconclusive: 7.08 µM [inhibitor, partial curve]",
O=C(NCCn1ccc2ccccc21)c1ccc(S(=O)(=O)N2CCOCC2)cc1,"inconclusive: 1 µM [activator, single point]",
O=C(c1ccccc1Oc1ccccc1)N1CCN(c2ccccc2)CC1,inactive,
CCCOc1ccc(C2NC(=S)NC(C)=C2C(=O)c2ccccc2)cc1OC (configuration not stated),"inconclusive: 22.4 µM [inhibitor, single point]",
COc1cccc(CNC(=O)CSc2ccc(-c3ccco3)nn2)c1,inactive,
CCN(CC)c1ncnc2sc3c(c12)CCC3,"inconclusive: 11.2 µM [inhibitor, partial curve]",
Cc1onc(-c2ccccc2Cl)c1C(=O)Nc1nnc(-c2ccc(Cl)cc2Cl)s1,active: 35.5 µM,
c1ccc(Cn2cc(CN3CCCCO3)c(-c3ccc4c(c3)OCO4)n2)cc1,,inactive: 13.8% [at 9.22 µM]
Cc1ccc2c(Cl)cc(Cl)c(OCC(=O)O)c2n1,"inconclusive: 3.98 µM [activator, full curve, poor fit]",
COc1cccc(C(=O)/C=C/c2ccc(N3CCCCC3)c([N+](=O)[O-])c2)c1,inactive,
CCOC(=O)c1c(N)n[nH]c1-c1ccc(OC)cc1,"inconclusive: 3.55 µM [inhibitor, single point]",
CCSc1nnc(NC(=O)c2ccc(S(=O)(=O)N(C)C)cc2)s1,inactive,

# Molecules from the list above that have a halogen:
SMILES,Potency,"activity change, negative = inhibition"
COc1ccccc1-n1c(=O)oc2ccc(Cl)cc2c1=O,active: 7.08 µM,
Cc1ccc(NC(=O)Cn2cccc2)cc1Cl,inactive,
Cc1onc(-c2ccccc2Cl)c1C(=O)Nc1nnc(-c2ccc(Cl)cc2Cl)s1,active: 35.5 µM,
Cc1ccc2c(Cl)cc(Cl)c(OCC(=O)O)c2n1,"inconclusive: 3.98 µM [activator, full curve, poor fit]",

# Following part:

SMILES,Potency,"activity change, negative = inhibition"
COc1ccc(NC(=S)NCCCN2CCCC2)cc1Cl,inactive,
COc1ccc(-c2nc3ccccc3c(=O)n2CCOc2ccc(C)cc2C)cc1,inactive,
COc1ccc(OC)c(NC(=O)C2=C(C)Nc3ncnn3C2c2cccs2)c1 (configuration not stated),"inconclusive: 35.5 µM [activator, single point]",
C[C@@H](C(=O)Nc1cccc(S(=O)(=O)N2CCOCC2)c1)N1C(=O)C2CC=CCC2C1=O (some centres not stated),"inconclusive: 8.91 µM [activator, partial curve]",
O=C(/C=C/c1ccc(Cl)cc1)N1CCN(c2ccc([N+](=O)[O-])c(N3CCOCC3)c2)CC1,"inconclusive: 4.47 µM [inhibitor, full curve]",
COC(=O)CNC(c1ccccc1)c1cc(Br)ccc1NC(=O)OCc1ccccc1 (configuration not stated),"inconclusive: 35.5 µM [inhibitor, single point]",
COc1ccc2oc(C)c(C(=O)c3ccc([N+](=O)[O-])cc3)c2c1,"inconclusive: 3.55 µM [inhibitor, partial curve, poor fit]",
Cc1n[nH]c(C)c1Sc1ccccc1N=Cc1cc(Cl)cc([N+](=O)[O-])c1O,inactive,
S=c1[nH]nc(COc2ccccc2)n1/N=C/c1cccs1,inactive,
NNC(=O)COc1ccc(-c2n[nH]c(C(F)(F)F)c2-c2ccc(Br)cc2)c(O)c1,"inconclusive: 14.1 µM [inhibitor, single point]",
CS(=O)(=O)c1ccc2nc(NC(=O)Nc3cccc(Cl)c3)sc2c1,"inconclusive: 3.55 µM [inhibitor, full curve, poor fit]",
O=C(NCCc1c[nH]c2ccccc12)/C(=C/c1cccnc1)NC(=O)c1cccs1,,inactive: -28.9% [at 9.22 µM]
O=c1c(Cl)c(Cl)cnn1Cc1ccccc1Cl,inactive,
Cc1c(Cl)cccc1NC(=S)NCC1COc2ccccc2O1 (configuration not stated),"inconclusive: 22.4 µM [inhibitor, single point]",
COc1c(C)cc(C(=O)C2CCCN(Cc3cnc(N4CCOCC4)s3)C2)cc1C (configuration not stated),,inactive: 23.7% [at 9.22 µM]
Cn1nc(C(=O)OCC(=O)NC2CCS(=O)(=O)C2)c2ccccc2c1=O (configuration not stated),inactive,
Nc1ncnc2nc(SCCN3CCCCC3)[nH]c12,"inconclusive: 7.08 µM [inhibitor, partial curve]",
CCn1ncc(C2=NOC(C(=O)Nc3cnn(C45CC6CC(CC(C6)C4)C5)c3)C2)c1C (configuration not stated),"inconclusive: 35.5 µM [inhibitor, single point]",
O=C(CSc1nc2ccc([N+](=O)[O-])cc2[nH]1)NC1CCCCC1,"inconclusive: 22.4 µM [inhibitor, single point]",
Cc1ccc(N/N=C(\C#N)C(=O)c2ccsc2)cc1,,inactive: -7.46% [at 9.22 µM]
COc1cc(NC(=S)Nc2cccc(Cl)c2Cl)c(OC)cc1Cl,inactive,
O=C(NCCc1ccc2c(c1)OCO2)C1CCN(S(=O)(=O)c2ccc(Cl)cc2)CC1,inactive,
Cc1nn(Cc2ccc(C(=O)N3c4ccc(F)cc4CCC3C)o2)c(C)c1Br (configuration not stated),"inconclusive: 11.2 µM [inhibitor, single point]",
COc1ccc(OC)c(NC(=S)NN2CCOCC2)c1,active: 11.2 µM,

SMILES,Potency,"activity change, negative = inhibition"
CC(C)(C)NC(=O)c1ccc2nccnc2c1,inactive,
CCS(=O)(=O)c1ccc(Sc2nncn2C)c([N+](=O)[O-])c1,active: 11.2 µM,
CCOC(=O)C1=C(C)N(c2ccc(OCC)cc2)C(=O)/C1=C\c1ccco1,"inconclusive: 25.1 µM [activator, partial curve, poor fit]",
COc1cccc(OCC(O)CN2CCN(c3ccccn3)CC2)c1 (configuration not stated),inactive,
O=Cc1s/c(=N\S(=O)(=O)c2ccccc2)n(CCCCl)c1Cl,active: 5.01 µM,
COc1cccc(CN(C)CC(=O)Nc2cccc(C(F)(F)F)c2)c1OC,"inconclusive: 15.8 µM [inhibitor, partial curve]",
COc1cc(OC)c(C(=O)Nc2ccccc2-c2ccccc2)cc1OC,"inconclusive: 8.91 µM [inhibitor, partial curve]",
CN(C)c1ccc(C(CC(=O)O)NC(=O)c2ccc(Cl)cc2)cc1 (configuration not stated),inactive,
CCn1ccc(C(=O)Nc2ccccc2SC)n1,inactive,
COc1ccc(NC(=S)NCc2cccn2C)cc1,"inconclusive: 35.5 µM [activator, single point]",
N/C(=N\OC(=O)COc1ccc2ccccc2c1Br)c1ccncc1,"inconclusive: 31.6 µM [inhibitor, single point]",
O=C(N/N=C/c1ccc(O)cc1O)/C(=C/c1ccccc1)CCO,"inconclusive: 2.51 µM [inhibitor, full curve, poor fit]",
Cc1nnc(N/N=C\c2ccc(-c3ccccc3[N+](=O)[O-])o2)n1N,inactive,
Cc1cc(C)cc(NC(=O)Nc2ccc3c(c2)N(C)C(=O)CS3)c1,"inconclusive: 22.4 µM [inhibitor, single point]",
Cc1cc(CNC(=O)COc2ccccc2F)c2ccccc2n1,"inconclusive: 11.2 µM [inhibitor, partial curve]",
Cc1c(CNC2CCCC(C)C2C)c(C(=O)O)c(C)n1Cc1ccccc1 (configuration not stated),inactive,
COCC(C)NC(=O)c1ccc(-n2nc(C(F)(F)F)cc2-c2cccs2)cc1 (configuration not stated),"inconclusive: 17.8 µM [inhibitor, single point]",
CCn1nnnc1SCC(=O)Nc1cc(C)on1,inactive,
Cc1ccc(-c2nc(CSCC(=O)NCCN3CCN(Cc4ccccc4)CC3)c(C)o2)cc1,"inconclusive: 35.5 µM [inhibitor, single point]",
CCCCCCSc1nc(O)c(C2OC(=O)c3c2ccc(OC)c3OC)c(=O)n1-c1ccccc1 (configuration not stated),"inconclusive: 35.5 µM [activator, single point]",
CC(C)C(c1nnnn1Cc1cccs1)N1CCN(C(=O)c2ccco2)CC1 (configuration not stated),"inconclusive: 3.55 µM [inhibitor, single point]",
O=C(NCc1cccc(Cl)c1)c1cnn2c1NC(c1ccco1)CC2C(F)(F)F (configuration not stated),"inconclusive: 35.5 µM [inhibitor, single point]",
CCn1c(=O)n(CC)c2cc(S(=O)(=O)N3CCC(c4ccccc4)CC3)ccc21,"inconclusive: 14.1 µM [inhibitor, partial curve]",
Cc1cc2ccccn2c1C(=O)c1ccc(S(=O)(=O)N(C)C)cc1,"inconclusive: 7.94 µM [inhibitor, partial curve]",

# In another format: results already given.
SMILES | Potency | activity change, negative = inhibition
CCOC(=O)C1=C(C)N(c2ccc(OCC)cc2)C(=O)/C1=C\c1ccco1 | inconclusive: 25.1 µM [activator, partial curve, poor fit] | 
COc1cccc(OCC(O)CN2CCN(c3ccccn3)CC2)c1 (configuration not stated) | inactive | 
